Record: PubChem BioAssay AID504793 (Drosophila RNAi Screening Center, 2011)
In all, the deposit lists about 23,000 reagents; this is a random part of those that have a named target and a result. Of all reagents, 62 (0.27%) got an active call. 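Calls come from follow-up tests whose scores are not deposited, so confirmed genes may have low counts here; counts are not normalised per plate.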 Raw values are not corrected between plates. Names joined by + are all predicted targets of the reagent.

Assay: 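Knock-downs allowing continued mitosis even though DNA is damaged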 (primary screen)
System: Drosophila S2R+ cells
Knock-down reagent: long dsRNA against Drosophila genes, about 0.25 µg dsRNA per well
Time to read-out: 4 days of dsRNA, then 4 hours of drug before read-out
Treatment: doxorubicin 0.5 µM for 4 hours to cause double-strand breaks, in cells also given a low, harmless dose of dsRNA against nbs to sensitise the assay
Measured: 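Mitotic index as the number of phospho-histone H3-positive cells in each well following doxorubicin, given as raw counts without normalisation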
Direction: mitotic cells: higher = more cells in mitosis, weaker G2 arrest
Active means: 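a call needs confirmation in secondary tests, with other dsRNAs and a check of mitotic timing without damage, not just a high primary count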
Calls: active = confirmed in follow-up tests; inactive = not confirmed

no.	predicted target	dsRNA	mitotic cells, replicate 1	mitotic cells, replicate 2	Outcome
1	frj	DRSC03250	8		inactive
2	CG14459	DRSC23039	12		inactive
3	dgt3	DRSC04349	135		inactive
4	CG42458	DRSC23129	13		inactive
5	CG42458	DRSC23261	7		inactive
6	CG42458	DRSC26691	5		inactive
7	CG42458	DRSC29831	3		inactive
8	CG5756	DRSC06950	5		inactive
9	CG5756	DRSC28245	7		inactive
10	Pi4KIIIalpha	DRSC18655	15		inactive
11	Ddx1	DRSC11862	6		inactive
12	CG8379	DRSC16414	5		inactive
13	CG15347	DRSC18031	11		inactive
14	CG15517	DRSC15056	8		inactive
15	Polr3A	DRSC19766	5		inactive
16	CG5348	DRSC06933	7		inactive
17	CG30010	DRSC05193	10		inactive
18	CG4950	DRSC10463	1		inactive
19	CG31406	DRSC12777	12		inactive
20	CG31406	DRSC26169	6		inactive
21	CG10395	DRSC04840	8		inactive
22	CG10395	DRSC26811	1		inactive
23	dor	DRSC18765	7		inactive
24	dor	DRSC27554	5		inactive
25	BomS1	DRSC22678	8		inactive
26	udt	DRSC14214	10		inactive
27	CG15029 (retired record)	DRSC19610	16		inactive
28	CG15029 (retired record)	DRSC27659	13		inactive
29	CCT1	DRSC16877	99		inactive
30	CCT1	DRSC26661	7		inactive
31	CG13728	DRSC10056	4		inactive
32	Torsin	DRSC18570	13	10	inactive
33	CG18404	DRSC15323	7		inactive
34	Mid1	DRSC04231	5		inactive
35	Mid1	DRSC04308	7		inactive
36	Mid1	DRSC22773	11		inactive
37	Mid1	DRSC22803	13		inactive
38	Mid1	DRSC25509	1		inactive
39	Mid1	DRSC28634	5		inactive
40	CG12914	DRSC06229	4		inactive
41	CG16984	DRSC08500	5		inactive
42	CG16984	DRSC28605	6		inactive
43	CG31077	DRSC13805	7		inactive
44	CG31077	DRSC23916	2		inactive
45	CG31103	DRSC22324	8		inactive
46	CG42249	DRSC19383	15		inactive
47	CG42249	DRSC19826	22		inactive
48	CG42249	DRSC28504	8		inactive
49	CG14915	DRSC02399	3		inactive
50	CG14915	DRSC26295	9		inactive
51	CG1486	DRSC20508	3		inactive
52	CG1486	DRSC28958	9		inactive
53	CG14442	DRSC25040	3		inactive
54	jing	DRSC04923	9		inactive
55	jing	DRSC05000	3		inactive
56	CG1523	DRSC15033	2		inactive
57	CG1523	DRSC26315	2		inactive
58	CG3842	DRSC18326	10		inactive
59	CG3842	DRSC26584	4		inactive
60	CG32066	DRSC10652	1		inactive
61	CG32066	DRSC10653	2		inactive
62	Cec-Psi1	DRSC21956	9		inactive
63	UK114	DRSC01973	4		inactive
64	CG33340	DRSC14615	10		inactive
65	CG33340	DRSC26638	4		inactive
66	Tsp96F	DRSC14147	8		inactive
67	CG11722	DRSC14358	12		inactive
68	Eig71Eh	DRSC11155	6		inactive

Laid out differently: entries from further up.
predicted target	dsRNA	mitotic cells, replicate 1	mitotic cells, replicate 2	Outcome
CG30010	DRSC05193	10		inactive
CG4950	DRSC10463	1		inactive
CG31406	DRSC12777	12		inactive
CG31406	DRSC26169	6		inactive
CG10395	DRSC04840	8		inactive
CG10395	DRSC26811	1		inactive
dor	DRSC18765	7		inactive
dor	DRSC27554	5		inactive
BomS1	DRSC22678	8		inactive
udt	DRSC14214	10		inactive

Next results follow:
no.	predicted target	dsRNA	mitotic cells, replicate 1	mitotic cells, replicate 2	Outcome
69	Mical	DRSC14349	11		inactive
70	Mical	DRSC14351	8		inactive
71	Mical	DRSC15365	4		inactive
72	Mical	DRSC15366	6		inactive
73	CG5687	DRSC08568	5		inactive
74	sac	DRSC12237	8		inactive
75	sac	DRSC27045	3		inactive
76	CG5024	DRSC15698	12		inactive
77	SkpF + CG5357 (retired record)	DRSC04120	7		inactive
78	CG17991	DRSC15294	7		inactive
79	CG13616	DRSC14619	8		inactive
80	CG15927	DRSC19742	12		inactive
81	CG15927	DRSC28678	3		inactive
82	CG14262	DRSC14757	16		inactive
83	Stim	DRSC20158	5		inactive
84	Dro	DRSC07406	5		inactive
85	Dro	DRSC39147	15		inactive
86	CG10205	DRSC05979	5		inactive
87	CG14423	DRSC17920	9		inactive
88	CG14423	DRSC23857	7		inactive
89	CG31959 (retired record)	DRSC22912	9		inactive
90	Jon99Fii + Jon99Cii + Jon99Ciii + 1 more	DRSC15298	13		inactive
91	Nup358	DRSC14410	11		inactive
92	Nup358	DRSC29772	4		inactive
93	Ten-a	DRSC18924	4		inactive
94	Ten-a	DRSC19700	8		inactive
95	Ten-a	DRSC19793			inactive
96	Ten-a	DRSC19864	10		inactive
97	Ten-a	DRSC19865	8		inactive
98	Ten-a	DRSC20290	9		inactive
99	Ten-a	DRSC21461	20		inactive
100	Ten-a	DRSC23016	8		inactive
101	Ten-a	DRSC29598	9		inactive
102	COX5B	DRSC02115	6		inactive
103	garz	DRSC07193	2		inactive
104	sax	DRSC07675	6		inactive
105	sax	DRSC26844	8		inactive
106	Polr3H	DRSC10817	5		inactive
107	RASSF8	DRSC15707	10		inactive
108	RASSF8	DRSC26449	9		inactive
109	Dip-C	DRSC15855	10		inactive
110	Porin2	DRSC02584	5		inactive
111	eIF2beta	DRSC11341	8		inactive
112	eIF2beta	DRSC28025			inactive
113	CG3600 (retired record)	DRSC18599	13		inactive
114	CG3600 (retired record)	DRSC25130	6		inactive
115	prg	DRSC03324	4		inactive
116	CG31787	DRSC01632	7		inactive
117	CG6310	DRSC10619	4		inactive
118	Gr64d + Gr64e	DRSC08446	10		inactive
119	lic	DRSC20347	10		inactive
120	CG14759	DRSC06494	6		inactive
121	shn	DRSC05266	20		inactive
122	shn	DRSC07681	7		inactive
123	NdufA3	DRSC18431	16		inactive
124	CG7377	DRSC10830	6		inactive
125	Mal-A3	DRSC07462	5		inactive
126	Mal-A3	DRSC28752	3		inactive
127	CG34248	DRSC09426	1		inactive
128	Spn88Ea	DRSC17061	5		inactive
129	Spn88Ea	DRSC27907	11		inactive
130	Nha2	DRSC14689	7		inactive
131	Nha2	DRSC15619	8		inactive
132	Nha2	DRSC15623	9		inactive
133	CG9154	DRSC03150	5		inactive
134	Tsp33B	DRSC02418	3		inactive
135	Tsp33B	DRSC28982	9		inactive
136	CG14787	DRSC18606	11		inactive
137	Npc2b	DRSC15464	2		inactive
138	EDTP	DRSC07409	6		inactive
139	Cad87A	DRSC16161	5		inactive
140	Cad87A	DRSC29158	5		inactive
